# Measured values taken from patent US20080038386A1, “Use of a liquid cooling sensate to provide a pungent, warming or tingling sensate composition” (priority 2006, published 2008).
# Some results were stated once for a whole list of compounds, not compound by compound.
# Assay: Sensory panel: pungency enhancement of a hot chile pepper sauce
# Assay type: in vivo
# Conditions: 28 ppm as only cooling agent in 5% strength hot chile pepper sauce, comparative test
# Excerpt: For this type evaluation, a panel consisting of both professional flavorists and other individuals with sensory testing experience was employed. In each tasting session two samples were presented to the panelists in a randomized order to avoid presentation order effect. Panelists were asked to rate the samples as same or different. If different, panelists were asked to rate the “pungent, hotness (warming) or tingling” intensity and to describe the flavor profile as compared to a control sample without the eutectic cooling mixture.
# A commercial hot chile pepper sauce derived from Capsicum frutescens var. tabasco (Tabasco® brand) (whose primary pungent principles are the amides capsaicin and dihydrocapsaicin) was diluted to 5% strength in water (the control). […] The control sample was the 5% strength hot chile pepper sauce. […] The degree of hotness (warmth) and pungency profile enhancement was judged to be 25-35%.
smiles,measurement,value
"CCNC(=O)C1CC(C)CCC1C(C)C (stereo not shown) [WS-3, N-Ethyl-p-menthane-3-carboxamide]",increase in overall hotness (warmth) and pungency profile,25-35%
